Changes are numbered by the printed parent chain. These are yes or no findings as the source states them, for the method shown. Binding seen in cells or lysates may run through a third protein. Some results given as binding are weak or reduced against the parent protein; the word gives no strength. For some of these results: Where a sequence is shown, tags or fusion partners need not be part of it.
Assays:
Test in all cases: co-IP; anti-Flag M2 affinity agarose with 1 mg nuclear extract of DL1 cells stably expressing FLAG-tagged proteins; 20 mM HEPES pH 7.4, 100 mM KCl, 10% glycerol, 0.1% NP-40; 2 h at 4 °C, five washes; western blot, normalized to FLAG signals
[1] = biological target: FLAG-IntS11-K462E (Drosophila) (Drosophila (D. melanogaster)) (UniProt Q9VAH9)
[2] = biological target: T1, FLAG-IntS9-R2E (Drosophila) (Drosophila (D. melanogaster)) (UniProt Q95TS5)
T1 sequence: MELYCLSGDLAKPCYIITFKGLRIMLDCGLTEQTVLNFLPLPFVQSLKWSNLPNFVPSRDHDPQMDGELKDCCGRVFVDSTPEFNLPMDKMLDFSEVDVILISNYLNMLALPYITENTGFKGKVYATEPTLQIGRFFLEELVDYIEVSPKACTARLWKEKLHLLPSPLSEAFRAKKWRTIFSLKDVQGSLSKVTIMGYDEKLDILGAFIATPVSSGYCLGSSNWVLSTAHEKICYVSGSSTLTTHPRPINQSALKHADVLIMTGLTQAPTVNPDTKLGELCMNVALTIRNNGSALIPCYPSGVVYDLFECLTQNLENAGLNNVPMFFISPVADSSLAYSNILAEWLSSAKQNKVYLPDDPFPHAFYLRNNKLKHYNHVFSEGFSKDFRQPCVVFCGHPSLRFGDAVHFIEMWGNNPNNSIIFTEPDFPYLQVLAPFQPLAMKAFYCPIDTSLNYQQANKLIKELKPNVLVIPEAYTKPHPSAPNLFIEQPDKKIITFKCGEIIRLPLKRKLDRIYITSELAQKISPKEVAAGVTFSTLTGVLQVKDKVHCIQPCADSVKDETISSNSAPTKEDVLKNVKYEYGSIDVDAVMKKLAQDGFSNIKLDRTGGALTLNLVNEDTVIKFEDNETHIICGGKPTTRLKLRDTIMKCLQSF

Protein sequences, listed by entry. Tags and fused reporters are not part of them. Lines headed by an entry give the natural chain unless they say otherwise; changes in a name come on top.
UniProt Q9VAH9: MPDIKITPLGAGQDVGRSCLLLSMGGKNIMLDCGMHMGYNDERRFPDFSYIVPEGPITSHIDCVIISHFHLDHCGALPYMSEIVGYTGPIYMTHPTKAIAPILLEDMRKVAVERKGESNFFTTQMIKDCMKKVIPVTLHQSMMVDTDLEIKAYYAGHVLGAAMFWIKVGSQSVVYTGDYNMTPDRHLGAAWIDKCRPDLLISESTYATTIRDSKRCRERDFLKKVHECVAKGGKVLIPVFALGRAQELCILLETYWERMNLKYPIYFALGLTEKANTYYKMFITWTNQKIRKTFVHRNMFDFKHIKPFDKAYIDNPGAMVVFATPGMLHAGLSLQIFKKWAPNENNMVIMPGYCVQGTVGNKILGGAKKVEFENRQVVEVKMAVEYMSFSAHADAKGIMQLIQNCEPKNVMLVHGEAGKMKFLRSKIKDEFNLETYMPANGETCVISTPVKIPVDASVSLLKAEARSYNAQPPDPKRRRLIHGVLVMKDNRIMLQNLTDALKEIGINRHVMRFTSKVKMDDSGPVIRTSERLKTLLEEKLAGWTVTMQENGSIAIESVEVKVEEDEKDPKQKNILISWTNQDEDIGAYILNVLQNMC
UniProt Q9W1C5: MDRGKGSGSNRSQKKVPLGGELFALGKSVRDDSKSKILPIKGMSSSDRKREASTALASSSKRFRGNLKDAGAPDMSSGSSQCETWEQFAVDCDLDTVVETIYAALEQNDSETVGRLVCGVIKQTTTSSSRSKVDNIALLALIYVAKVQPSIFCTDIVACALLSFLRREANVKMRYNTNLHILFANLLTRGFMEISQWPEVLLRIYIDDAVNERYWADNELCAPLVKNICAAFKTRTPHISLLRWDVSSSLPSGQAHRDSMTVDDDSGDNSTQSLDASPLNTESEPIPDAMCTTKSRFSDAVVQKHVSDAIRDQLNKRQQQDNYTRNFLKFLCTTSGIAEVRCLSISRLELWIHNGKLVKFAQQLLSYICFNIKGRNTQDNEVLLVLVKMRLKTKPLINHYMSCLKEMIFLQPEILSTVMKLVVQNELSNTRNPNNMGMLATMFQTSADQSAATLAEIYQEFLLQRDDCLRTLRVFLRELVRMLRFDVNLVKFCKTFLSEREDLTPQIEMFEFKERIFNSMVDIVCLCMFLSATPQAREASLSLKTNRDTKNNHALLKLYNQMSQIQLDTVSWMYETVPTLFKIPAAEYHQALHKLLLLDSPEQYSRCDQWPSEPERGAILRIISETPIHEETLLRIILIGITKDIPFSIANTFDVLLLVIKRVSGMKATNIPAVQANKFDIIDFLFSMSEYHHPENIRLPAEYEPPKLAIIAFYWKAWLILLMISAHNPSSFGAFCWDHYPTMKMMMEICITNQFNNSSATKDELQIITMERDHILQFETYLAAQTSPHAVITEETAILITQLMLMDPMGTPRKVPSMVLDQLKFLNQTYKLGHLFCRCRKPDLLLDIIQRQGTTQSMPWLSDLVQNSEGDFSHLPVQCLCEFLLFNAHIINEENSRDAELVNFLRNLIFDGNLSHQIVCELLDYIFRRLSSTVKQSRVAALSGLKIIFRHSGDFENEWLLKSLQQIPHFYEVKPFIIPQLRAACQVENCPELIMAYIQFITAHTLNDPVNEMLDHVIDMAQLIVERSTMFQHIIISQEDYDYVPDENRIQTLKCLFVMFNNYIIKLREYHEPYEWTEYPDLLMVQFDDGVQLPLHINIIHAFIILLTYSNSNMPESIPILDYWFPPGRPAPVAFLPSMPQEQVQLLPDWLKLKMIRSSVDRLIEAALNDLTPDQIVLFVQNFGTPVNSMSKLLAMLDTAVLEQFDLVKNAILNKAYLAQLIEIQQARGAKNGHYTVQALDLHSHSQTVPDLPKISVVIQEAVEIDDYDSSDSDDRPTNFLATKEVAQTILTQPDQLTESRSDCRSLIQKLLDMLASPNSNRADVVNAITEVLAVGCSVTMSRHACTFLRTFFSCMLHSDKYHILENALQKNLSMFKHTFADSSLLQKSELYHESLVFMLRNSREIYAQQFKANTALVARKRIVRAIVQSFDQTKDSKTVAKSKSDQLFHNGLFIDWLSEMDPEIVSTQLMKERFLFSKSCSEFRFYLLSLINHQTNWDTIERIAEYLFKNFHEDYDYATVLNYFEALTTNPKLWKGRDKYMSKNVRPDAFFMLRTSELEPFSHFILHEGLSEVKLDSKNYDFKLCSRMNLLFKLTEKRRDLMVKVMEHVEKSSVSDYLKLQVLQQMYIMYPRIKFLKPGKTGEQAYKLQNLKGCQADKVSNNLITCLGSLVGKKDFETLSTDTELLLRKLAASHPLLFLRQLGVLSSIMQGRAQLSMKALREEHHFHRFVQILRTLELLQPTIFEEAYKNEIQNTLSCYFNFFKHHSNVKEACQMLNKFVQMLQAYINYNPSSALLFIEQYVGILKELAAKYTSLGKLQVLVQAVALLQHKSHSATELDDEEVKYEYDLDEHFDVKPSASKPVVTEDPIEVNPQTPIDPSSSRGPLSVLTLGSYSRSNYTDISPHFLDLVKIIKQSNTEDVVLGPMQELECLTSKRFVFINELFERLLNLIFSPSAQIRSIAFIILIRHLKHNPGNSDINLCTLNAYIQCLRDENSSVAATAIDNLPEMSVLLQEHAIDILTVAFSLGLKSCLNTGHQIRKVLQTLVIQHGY

[3] = biological target: FLAG-IntS11-WT (Drosophila) (Drosophila (D. melanogaster)) (UniProt Q9VAH9)
[4] = biological target: T2, FLAG-IntS9-WT (Drosophila) (Drosophila (D. melanogaster)) (UniProt Q95TS5)
T2 sequence: T1 sequence with E2R

Measured: binding

IntS1 (Drosophila, endogenous) (from UniProt Q9W1C5 1-2053)
binds: all assays above

IntS11 (Drosophila, endogenous) (from UniProt Q9VAH9 1-597) (enzyme)
binds: [2] | [4]

B1: IntS8 (Drosophila, endogenous) (protein, UniProt A1ZAK1 1-1007)
chain: MDDPLKPKPVPLAAETVLWFEFLLDPHKITQHLQRPHPEPSAMELIVQFISMTPNTAQESVGTPGSDLQNLNQTPSNSGPIPGVVGGAPAPTTPTASGGVGMPHSPQRPAEKGLQLNRKQLALKILELKVATWLKWDLDALEKNLPVIMQLALLRDLCTISYGCSLSIPLPNDFDARISAAGNERAARFALTIYHRMLLRMQLIKEQALKAPRPQNTMYQTVDQLQQFLDTPTQPSIEYLQQLCASTKPFYIFHYDSFVPLRCDDIGNGQNYDVMHLITPQELRAQLHYELAQYYLYTKQYVLAREAAAACNTNLQAIPPQTTLYYCHIRPSELEGLLQACGISAEEQSLLEKFQQSLLNNYTDIVSILRMDNRRREIPFISRRQVELDIEGSISTGILKETVQLQLQVAALNVVRNIFEWGSIFGSVEYFEKYRELDCLPPLVEALQEMLPHCTFKEQAALKHFLIDCLLHQGGQSRQLLQTVRGFGLFSSDELQDIDEQMLQATPPVPTNSLASLSDWMCHSKMSRVDVGALERQLISCTNANTVRILLVKLCATAPGKPLWAINPSWDVPQPLKTLIMAMPVSFLQDFSYVLLGKARELATRGNYIDAVSMLSVLKSENQRQEMAANVQLMCKLITWEILHIQITQCLEEWHQKPLDLQSLGGRCKQCLGALQAGDSIVPRPDILESCAIMLLNLTEFPPLLYLDKRAGPLELPLAFAATFIEMEKMKGPKKVCRDAWELMLSMFLNVPKRGSSGVGGISSLQAFLQRIRHQSVFGLAISMIGKVHNILKDDPNHDLSCEYMQLWPTSINNPVSYSLRSVCETLQWLLSEALSYYPQTISWLKMKGDLDLAIGNNESAMRCYVNALVTGTDYCTMPLQRNVADDYVIRKMIRCAANLGCHMQATVLCQFLDEIDYGIVFKNLSEKSSNFTDAMDAYYSCIWDTTLLEFIVNLHAKRGEHSRKLEAISMMGTLELNANNNEEIKRESAMVRKSRFLRALAKQYLL
binds: all assays above

B2: IntS4 (Drosophila, endogenous) (protein, UniProt Q9W3E1 1-1022)
chain: MALAIKKRVGTYVETVDGSPPVKKLRLQTLAADAKGGKSGKVGNVERKLTALNQLDAYVGNLPAGALVLPTGTPVASTGAPSTGVIGNPPAAATGAPPMTAANSRELLELLVKITDEISYEDVEMGELKEVASKIFQLYQLQERDSDTSIRVKLLELLSGLGCECATEQALTMIIDYFIFLLRKEVSQKVLAQGMMCLFRIGERRKHMLPISYKTQVAHLAKEQLRSGSAHTQKNAMLVIGRFATKMEGERHYVWKLAFYIDSQDSSVRAQALHALLTLGERGSQLPAVLYKRAVEAMKDDYECVRKEALQLVFMLGNRHPDYILPSDRQQEELRMIDAAFSKVCEALCDLSLQIRVLAAELLGGMTAVSREFLHQTLDKKLMSNLRRKRTAHERGARLVASGEWSSGKRWADDAPQEHLDAQSISIIASGACGALIHGLEDEFLEVRTAAVASMCKLALSRPDFAVTSLDFLVDMFNDEIEDVRLKAIYSLTAIAKHIVLREDQLEIMLGSLEDYSVDVREGLHLMLGACRVSTQTCLLMVVQKLLDVLAKYPQDRNSTYACMRKIGQKHPHLVMAVAVHLLYVHPFFETPERDVEDPAYLCVLILVFNAAEHLVPIISLLPTATHRHYAYLRDSMPNLVPQLPIEGASSASATHRIDSAMHQAGSSAEYLQMILSHIEEIFTMTDERLELLQTAQSNLQRLGSIDAGMYGTSNFLETFLAAQIQIEQMQRCASTQRSRVPLKESLAALIRNCLKLQHTFSGLNYGDILQVKQLRLRACALHLVLVVRDRSQSALGPCQMLLQTAGDISEFIKANTKDEEEKPPVVETDMPMKESVSRDAQPDSFTRQLLIKLDGISDPKPGRVFREILPLVQQAPPLALPPANDKIRRCVANILEPCPLQSQDNVIKVTAGLIAAVPFVAEIDNLLESQKADMRIKIKYPDQHMHTVVPKQSDFKPIMTEQGEHKTNVRLRTTILLSHSVWTESSLVEIQLCLAVRPGSELELCKPAKVLFAPKPVRRGI
binds: all assays above

B3: IntS9 (Drosophila, endogenous) (protein, UniProt Q95TS5 1-654)
chain: T1 sequence with E2R
binds: [1] | [3]

Reference: paper PMC9525679, “Inositol hexakisphosphate is required for Integrator function” (Nature Communications, 2022)
